# ± gives the standard deviation of the averaged measurements. This is one part of the list.
# Chains of the proteins cited; added tags and fusions are not shown. Lines headed by an entry give the natural chain unless they say otherwise; changes in a name come on top.
# UniProt P63167, whole entry: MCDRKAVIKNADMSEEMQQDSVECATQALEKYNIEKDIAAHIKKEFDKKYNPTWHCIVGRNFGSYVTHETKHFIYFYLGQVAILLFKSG
# UniProt P84103: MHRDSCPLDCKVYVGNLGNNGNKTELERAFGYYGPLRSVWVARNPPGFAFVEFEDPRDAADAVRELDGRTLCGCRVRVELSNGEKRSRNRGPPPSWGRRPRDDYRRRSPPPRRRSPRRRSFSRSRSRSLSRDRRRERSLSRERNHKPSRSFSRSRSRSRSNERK
# UniProt P52298: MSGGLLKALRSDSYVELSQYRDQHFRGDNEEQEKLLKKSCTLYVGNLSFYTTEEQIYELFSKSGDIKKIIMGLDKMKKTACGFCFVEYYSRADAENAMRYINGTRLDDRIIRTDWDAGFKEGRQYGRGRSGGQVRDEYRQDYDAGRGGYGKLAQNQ
# UniProt P54619: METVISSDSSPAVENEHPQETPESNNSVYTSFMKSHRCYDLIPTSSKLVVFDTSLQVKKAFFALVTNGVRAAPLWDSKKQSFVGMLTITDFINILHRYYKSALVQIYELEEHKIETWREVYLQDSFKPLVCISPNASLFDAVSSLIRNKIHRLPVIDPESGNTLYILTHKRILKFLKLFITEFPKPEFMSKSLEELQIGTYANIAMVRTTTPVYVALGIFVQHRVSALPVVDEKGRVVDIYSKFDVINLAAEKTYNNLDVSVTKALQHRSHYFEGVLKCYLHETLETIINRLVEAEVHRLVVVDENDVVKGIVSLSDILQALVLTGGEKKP
# UniProt P62166, whole entry, looked up: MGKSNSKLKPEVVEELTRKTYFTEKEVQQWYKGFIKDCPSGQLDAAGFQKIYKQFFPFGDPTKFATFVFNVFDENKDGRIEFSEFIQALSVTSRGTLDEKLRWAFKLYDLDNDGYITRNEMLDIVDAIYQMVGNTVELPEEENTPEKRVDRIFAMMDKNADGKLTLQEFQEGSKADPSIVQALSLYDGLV
# UniProt P53602: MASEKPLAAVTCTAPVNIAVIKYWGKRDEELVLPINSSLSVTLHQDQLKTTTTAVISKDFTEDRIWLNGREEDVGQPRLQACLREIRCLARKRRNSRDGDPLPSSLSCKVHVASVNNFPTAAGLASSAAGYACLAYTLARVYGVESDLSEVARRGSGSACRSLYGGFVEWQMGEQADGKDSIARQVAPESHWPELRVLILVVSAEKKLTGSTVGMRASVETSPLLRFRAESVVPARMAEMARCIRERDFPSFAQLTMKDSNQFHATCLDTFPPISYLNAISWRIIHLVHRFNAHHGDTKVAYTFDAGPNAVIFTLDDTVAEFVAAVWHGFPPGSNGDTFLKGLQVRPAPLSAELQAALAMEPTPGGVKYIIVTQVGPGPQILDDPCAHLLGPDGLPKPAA
# UniProt P52758: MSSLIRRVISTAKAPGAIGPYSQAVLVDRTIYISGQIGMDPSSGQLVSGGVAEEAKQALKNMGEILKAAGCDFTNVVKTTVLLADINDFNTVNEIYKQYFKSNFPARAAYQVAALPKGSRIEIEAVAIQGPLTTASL
# UniProt P54578: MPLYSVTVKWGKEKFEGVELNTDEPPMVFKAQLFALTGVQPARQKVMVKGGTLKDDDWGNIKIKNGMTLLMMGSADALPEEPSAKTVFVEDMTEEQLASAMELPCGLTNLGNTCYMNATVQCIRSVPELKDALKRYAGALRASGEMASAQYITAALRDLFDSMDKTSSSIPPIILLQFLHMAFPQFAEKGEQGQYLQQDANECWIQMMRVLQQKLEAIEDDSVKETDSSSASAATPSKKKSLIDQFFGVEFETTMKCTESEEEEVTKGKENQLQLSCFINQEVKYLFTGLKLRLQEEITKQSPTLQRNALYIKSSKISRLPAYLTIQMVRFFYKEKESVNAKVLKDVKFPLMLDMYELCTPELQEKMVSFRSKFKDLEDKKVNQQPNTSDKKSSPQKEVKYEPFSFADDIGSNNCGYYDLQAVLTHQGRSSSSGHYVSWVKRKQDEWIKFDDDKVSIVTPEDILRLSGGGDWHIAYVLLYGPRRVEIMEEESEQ
# UniProt P54577: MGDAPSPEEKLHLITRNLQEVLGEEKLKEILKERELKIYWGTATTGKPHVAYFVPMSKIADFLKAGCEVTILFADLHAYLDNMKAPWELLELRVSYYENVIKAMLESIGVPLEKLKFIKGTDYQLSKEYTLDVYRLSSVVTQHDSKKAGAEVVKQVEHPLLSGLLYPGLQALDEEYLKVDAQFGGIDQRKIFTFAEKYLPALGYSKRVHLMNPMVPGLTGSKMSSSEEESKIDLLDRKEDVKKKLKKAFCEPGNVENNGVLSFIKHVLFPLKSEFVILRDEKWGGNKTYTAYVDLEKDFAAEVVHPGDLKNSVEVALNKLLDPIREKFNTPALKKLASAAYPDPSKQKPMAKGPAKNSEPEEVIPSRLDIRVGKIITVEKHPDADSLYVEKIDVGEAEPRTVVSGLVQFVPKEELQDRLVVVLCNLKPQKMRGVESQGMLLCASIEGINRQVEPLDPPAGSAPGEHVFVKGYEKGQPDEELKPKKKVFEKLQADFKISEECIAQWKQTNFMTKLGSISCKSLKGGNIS
# UniProt Q00537: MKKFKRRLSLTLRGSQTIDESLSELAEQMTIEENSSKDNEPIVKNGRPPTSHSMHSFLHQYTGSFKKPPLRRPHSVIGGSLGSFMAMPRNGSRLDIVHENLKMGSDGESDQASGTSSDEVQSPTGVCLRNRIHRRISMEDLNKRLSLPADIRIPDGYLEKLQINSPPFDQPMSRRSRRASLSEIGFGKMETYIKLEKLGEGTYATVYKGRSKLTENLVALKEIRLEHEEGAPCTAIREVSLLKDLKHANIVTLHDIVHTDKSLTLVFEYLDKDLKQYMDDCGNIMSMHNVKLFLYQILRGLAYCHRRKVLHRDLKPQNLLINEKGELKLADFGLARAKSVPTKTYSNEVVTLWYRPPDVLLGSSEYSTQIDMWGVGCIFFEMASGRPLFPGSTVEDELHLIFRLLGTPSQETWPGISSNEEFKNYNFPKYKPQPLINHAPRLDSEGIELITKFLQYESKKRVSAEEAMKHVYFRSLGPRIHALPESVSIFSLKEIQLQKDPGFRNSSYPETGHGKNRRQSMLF
# UniProt P50502: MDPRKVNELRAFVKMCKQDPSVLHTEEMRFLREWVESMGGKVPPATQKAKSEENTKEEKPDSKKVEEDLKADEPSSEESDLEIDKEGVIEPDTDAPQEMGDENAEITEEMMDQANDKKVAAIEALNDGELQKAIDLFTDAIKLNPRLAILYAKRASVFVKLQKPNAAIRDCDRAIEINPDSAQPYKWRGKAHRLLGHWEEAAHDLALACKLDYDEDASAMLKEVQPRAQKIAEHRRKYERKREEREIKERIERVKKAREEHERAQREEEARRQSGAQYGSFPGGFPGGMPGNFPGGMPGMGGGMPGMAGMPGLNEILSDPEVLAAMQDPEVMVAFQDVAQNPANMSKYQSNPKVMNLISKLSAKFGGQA
# UniProt P51570: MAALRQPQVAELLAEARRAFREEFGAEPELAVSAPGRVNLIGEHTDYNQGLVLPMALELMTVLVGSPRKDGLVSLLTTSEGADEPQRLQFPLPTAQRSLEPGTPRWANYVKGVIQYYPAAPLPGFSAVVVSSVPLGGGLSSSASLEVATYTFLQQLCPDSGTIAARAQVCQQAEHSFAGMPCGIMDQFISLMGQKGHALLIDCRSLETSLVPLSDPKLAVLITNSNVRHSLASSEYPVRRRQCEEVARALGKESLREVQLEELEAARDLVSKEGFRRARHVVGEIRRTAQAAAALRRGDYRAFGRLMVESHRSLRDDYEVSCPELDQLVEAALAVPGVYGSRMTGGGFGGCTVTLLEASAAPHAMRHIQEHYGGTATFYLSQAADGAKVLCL
# UniProt P67870, whole entry: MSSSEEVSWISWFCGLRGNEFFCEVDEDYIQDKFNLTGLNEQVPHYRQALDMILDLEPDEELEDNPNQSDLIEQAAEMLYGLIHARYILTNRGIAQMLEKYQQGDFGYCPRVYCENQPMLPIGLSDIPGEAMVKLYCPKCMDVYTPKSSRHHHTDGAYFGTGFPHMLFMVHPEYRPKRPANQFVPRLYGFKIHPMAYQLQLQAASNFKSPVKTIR
# UniProt Q00535, whole entry, looked up: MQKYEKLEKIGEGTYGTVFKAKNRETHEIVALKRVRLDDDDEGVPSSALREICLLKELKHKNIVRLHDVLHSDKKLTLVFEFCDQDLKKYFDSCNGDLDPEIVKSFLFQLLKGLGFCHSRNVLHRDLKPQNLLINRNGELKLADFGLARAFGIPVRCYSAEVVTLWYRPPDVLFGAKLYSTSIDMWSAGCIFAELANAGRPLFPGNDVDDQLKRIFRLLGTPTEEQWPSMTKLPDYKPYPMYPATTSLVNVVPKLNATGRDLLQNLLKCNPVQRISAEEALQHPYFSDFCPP
# UniProt P57076: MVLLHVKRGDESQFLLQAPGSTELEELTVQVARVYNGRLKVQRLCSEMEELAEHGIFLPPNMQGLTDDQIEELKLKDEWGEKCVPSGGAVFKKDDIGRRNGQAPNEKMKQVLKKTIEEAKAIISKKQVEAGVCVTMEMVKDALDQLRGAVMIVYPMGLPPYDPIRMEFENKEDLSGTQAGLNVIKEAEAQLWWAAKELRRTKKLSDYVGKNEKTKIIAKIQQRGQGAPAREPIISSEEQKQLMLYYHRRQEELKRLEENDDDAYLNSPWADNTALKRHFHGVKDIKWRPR
# UniProt P56134: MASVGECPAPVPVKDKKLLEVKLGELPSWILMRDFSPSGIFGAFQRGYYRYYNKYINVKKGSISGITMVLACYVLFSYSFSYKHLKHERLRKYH
# UniProt P61204: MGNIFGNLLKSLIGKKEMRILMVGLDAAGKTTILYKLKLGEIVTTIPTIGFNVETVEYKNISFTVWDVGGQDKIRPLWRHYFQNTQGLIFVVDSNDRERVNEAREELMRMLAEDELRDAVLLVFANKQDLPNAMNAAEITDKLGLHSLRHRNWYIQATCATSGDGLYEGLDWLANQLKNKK
# UniProt P61225: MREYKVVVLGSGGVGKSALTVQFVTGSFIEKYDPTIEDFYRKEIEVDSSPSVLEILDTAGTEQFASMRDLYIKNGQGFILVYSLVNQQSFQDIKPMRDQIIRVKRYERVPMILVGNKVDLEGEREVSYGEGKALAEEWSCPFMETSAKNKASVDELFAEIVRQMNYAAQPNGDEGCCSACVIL
# UniProt P63092, whole entry, looked up: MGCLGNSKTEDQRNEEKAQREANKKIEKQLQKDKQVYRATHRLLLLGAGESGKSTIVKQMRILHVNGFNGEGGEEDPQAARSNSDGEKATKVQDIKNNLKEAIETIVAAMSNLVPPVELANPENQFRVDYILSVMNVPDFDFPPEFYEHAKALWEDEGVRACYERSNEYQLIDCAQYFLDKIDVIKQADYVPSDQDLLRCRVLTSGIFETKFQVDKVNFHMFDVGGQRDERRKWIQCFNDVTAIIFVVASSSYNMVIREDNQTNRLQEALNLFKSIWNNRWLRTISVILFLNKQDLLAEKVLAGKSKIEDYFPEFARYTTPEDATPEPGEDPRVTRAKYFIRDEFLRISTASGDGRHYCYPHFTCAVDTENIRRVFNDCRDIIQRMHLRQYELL
# UniProt P55769: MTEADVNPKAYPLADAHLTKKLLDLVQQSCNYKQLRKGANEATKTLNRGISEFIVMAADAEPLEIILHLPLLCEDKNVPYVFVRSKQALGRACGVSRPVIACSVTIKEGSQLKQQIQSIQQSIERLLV
# UniProt P78406: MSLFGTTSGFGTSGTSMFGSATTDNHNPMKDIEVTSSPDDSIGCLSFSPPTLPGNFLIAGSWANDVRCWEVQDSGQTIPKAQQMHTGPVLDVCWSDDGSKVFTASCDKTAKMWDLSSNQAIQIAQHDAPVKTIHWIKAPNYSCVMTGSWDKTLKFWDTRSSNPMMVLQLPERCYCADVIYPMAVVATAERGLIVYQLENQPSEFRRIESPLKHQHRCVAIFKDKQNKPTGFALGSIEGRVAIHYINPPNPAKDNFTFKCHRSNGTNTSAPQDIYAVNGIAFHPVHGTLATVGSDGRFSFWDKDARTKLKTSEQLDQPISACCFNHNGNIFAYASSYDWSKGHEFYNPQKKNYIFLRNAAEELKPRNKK
# UniProt P61966: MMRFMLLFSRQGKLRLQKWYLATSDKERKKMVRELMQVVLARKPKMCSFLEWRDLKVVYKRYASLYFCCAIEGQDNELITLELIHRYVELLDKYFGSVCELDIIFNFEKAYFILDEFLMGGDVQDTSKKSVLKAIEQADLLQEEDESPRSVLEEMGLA
# UniProt Q00013: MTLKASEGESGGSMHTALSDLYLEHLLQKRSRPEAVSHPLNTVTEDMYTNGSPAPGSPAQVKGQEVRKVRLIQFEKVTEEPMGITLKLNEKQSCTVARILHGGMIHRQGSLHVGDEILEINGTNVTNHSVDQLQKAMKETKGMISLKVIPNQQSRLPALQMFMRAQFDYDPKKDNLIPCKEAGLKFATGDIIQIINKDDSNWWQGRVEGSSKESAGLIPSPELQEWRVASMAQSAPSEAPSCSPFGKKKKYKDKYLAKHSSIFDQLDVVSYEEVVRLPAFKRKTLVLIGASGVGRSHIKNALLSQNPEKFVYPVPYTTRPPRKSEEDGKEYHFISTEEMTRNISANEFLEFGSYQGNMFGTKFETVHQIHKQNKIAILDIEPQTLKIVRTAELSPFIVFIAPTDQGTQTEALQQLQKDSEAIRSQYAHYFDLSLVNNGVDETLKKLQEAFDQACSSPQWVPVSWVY
# Compound: Nc1nc2c(ncn2[C@@H]2O[C@H](COP(=O)(O)OP(=O)(O)OP(=O)(O)O)[C@@H](O)[C@H]2O)c(=O)[nH]1 [guanosine triphosphate]
# Test: NP40-soluble protein abundance relative to vehicle (solubility fold change) (ratio); higher = more soluble protein in presence of GTP
# Settings: concentration: 4mM
# Outline: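 Each value is a fold change relative to the detergent-processed vehicle, calculated per replicate from vsn-normalised intensities. Jurkat crude lysate received eight concentrations (0.1 to 10 mM) for 10 min at room temperature and 3 min at 37 °C, then was solubilised in 0.8% NP40 with benzonase (60 min, 4 °C). The ultracentrifuged supernatant was TMT-labelled and run by LC-MS/MS in three independent experiments.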
row,Target,NP40-soluble protein abundance
1,UniProt P63167,0.989 ± 0.063
2,UniProt P84103 and related entries,0.987 ± 0.041
3,NCBP2 (UniProt P52298),1.05 ± 0.077
4,UniProt P54619 and related entries,0.957 ± 0.086
5,NCS1 (UniProt P62166),0.907 ± 0.011
6,MVD (UniProt P53602),0.897 ± 0.019
7,UniProt P52758,0.943 ± 0.044
8,UniProt P54578 and related entries,0.903 ± 0.026
9,YARS (UniProt P54577),0.864 ± 0.061
10,UniProt Q00537 and related entries,1.12 ± 0.11
11,ST13 (UniProt P50502),0.869 ± 0.07
12,SUB1 (UniProt P53999),0.834 ± 0.025
13,UniProt P57081 and related entries,0.986 ± 0.038
14,FXR2 (UniProt P51116),1.8 ± 0.22
15,RBM6 (UniProt P78332),1.13 ± 0.032
16,GALK1 (UniProt P51570),0.961 ± 0.021
17,UniProt P67870 and related entries,1.04 ± 0.043
18,CDK5 (UniProt Q00535),0.928 ± 0.036
19,UniProt P57076,0.94 ± 0.11
20,UniProt P56134 and related entries,1.01 ± 0.18

row,Target,NP40-soluble protein abundance
1,OXCT1 (UniProt P55809),0.903 ± 0.037
2,ARF3 (UniProt P61204),0.926 ± 0.091
3,UniProt P61225,0.895 ± 0.061
4,YBEY (UniProt P58557),1.04 ± 0.07
5,UniProt P63092-2|P63092-3|P63092 and related entries,0.882 ± 0.043
6,AP3M2 (UniProt P53677),0.943 ± 0.13
7,RPL7A (UniProt P62424),0.849 ± 0.11
8,UniProt P51532 and related entries,1.19 ± 0.15
9,UniProt P55769,1.22 ± 0.065
10,UniProt P62081,1.09 ± 0.22
11,UniProt P82912 and related entries,1.43 ± 0.36
12,UniProt P78406 and related entries,1.02 ± 0.053
13,UniProt P62269,0.862 ± 0.22
14,UniProt P63000 and related entries,1.03 ± 0.054
15,UniProt P62913 and related entries,1.01 ± 0.16
16,UniProt P62277,0.802 ± 0.25
17,UniProt P61966,1.09 ± 0.086
18,MPP1 (UniProt Q00013),0.989 ± 0.048
19,UniProt P53990 and related entries,0.914 ± 0.082

# Same assay, conditions: concentration: 6mM
row,Target,NP40-soluble protein abundance
1,UniProt P63167,1.09 ± 0.079
2,UniProt P84103 and related entries,1.06 ± 0.067
3,NCBP2 (UniProt P52298),1.08 ± 0.085
4,UniProt P54619 and related entries,0.949 ± 0.076
5,NCS1 (UniProt P62166),0.894 ± 0.089
6,MVD (UniProt P53602),0.917 ± 0.064
7,UniProt P52758,0.89432 ± 0.00075
8,UniProt P54578 and related entries,0.897 ± 0.02
9,YARS (UniProt P54577),0.874 ± 0.048
10,UniProt Q00537 and related entries,1.16 ± 0.17
11,ST13 (UniProt P50502),0.804 ± 0.22
12,SUB1 (UniProt P53999),0.899 ± 0.055
13,UniProt P57081 and related entries,0.994 ± 0.1
14,FXR2 (UniProt P51116),1.97 ± 0.25
15,RBM6 (UniProt P78332),1.14 ± 0.049
16,GALK1 (UniProt P51570),0.977 ± 0.031
17,UniProt P67870 and related entries,1.04 ± 0.037
18,CDK5 (UniProt Q00535),0.882 ± 0.043
19,UniProt P57076,0.924 ± 0.097
20,UniProt P56134 and related entries,0.984 ± 0.027

row,Target,NP40-soluble protein abundance
1,OXCT1 (UniProt P55809),0.887 ± 0.031
2,ARF3 (UniProt P61204),0.929 ± 0.074
3,UniProt P61225,0.88 ± 0.047
4,YBEY (UniProt P58557),1.06 ± 0.089
5,UniProt P63092-2|P63092-3|P63092 and related entries,0.882 ± 0.038
6,AP3M2 (UniProt P53677),0.957 ± 0.12
7,RPL7A (UniProt P62424),0.793 ± 0.1
8,UniProt P51532 and related entries,1.2 ± 0.17
9,UniProt P55769,1.315 ± 0.0069
10,UniProt P62081,1.05 ± 0.18
11,UniProt P82912 and related entries,1.3 ± 0.32
12,UniProt P78406 and related entries,1.06 ± 0.083
13,UniProt P62269,0.811 ± 0.24
14,UniProt P63000 and related entries,0.966 ± 0.088
15,UniProt P62913 and related entries,0.978 ± 0.14
16,UniProt P62277,0.796 ± 0.27
17,UniProt P61966,1.06 ± 0.094
18,MPP1 (UniProt Q00013),0.934 ± 0.013
19,UniProt P53990 and related entries,0.911 ± 0.07

# Same assay, conditions: concentration: 8mM
row,Target,NP40-soluble protein abundance
1,UniProt P63167,1.03 ± 0.13
2,UniProt P84103 and related entries,1.1 ± 0.013
3,NCBP2 (UniProt P52298),1.08 ± 0.091
4,UniProt P54619 and related entries,0.907 ± 0.019
5,NCS1 (UniProt P62166),0.857 ± 0.14
6,MVD (UniProt P53602),0.905 ± 0.027
7,UniProt P52758,0.941 ± 0.032
8,UniProt P54578 and related entries,0.895 ± 0.038
9,YARS (UniProt P54577),0.872 ± 0.043
10,UniProt Q00537 and related entries,1.22 ± 0.17
11,ST13 (UniProt P50502),0.817 ± 0.14
12,SUB1 (UniProt P53999),0.836 ± 0.082
13,UniProt P57081 and related entries,0.974 ± 0.091
14,FXR2 (UniProt P51116),2.13 ± 0.29
15,RBM6 (UniProt P78332),1.21 ± 0.077
16,GALK1 (UniProt P51570),0.942 ± 0.053
17,UniProt P67870 and related entries,1.06 ± 0.028
18,CDK5 (UniProt Q00535),0.919 ± 0.044
19,UniProt P57076,0.912 ± 0.084
20,UniProt P56134 and related entries,1.05 ± 0.11

row,Target,NP40-soluble protein abundance
1,OXCT1 (UniProt P55809),0.872 ± 0.053
2,ARF3 (UniProt P61204),0.857 ± 0.061
3,UniProt P61225,0.914 ± 0.072
4,YBEY (UniProt P58557),1.12 ± 0.14
5,UniProt P63092-2|P63092-3|P63092 and related entries,0.873 ± 0.026
6,AP3M2 (UniProt P53677),0.9 ± 0.034
7,RPL7A (UniProt P62424),0.747 ± 0.12
8,UniProt P51532 and related entries,1.24 ± 0.23
9,UniProt P55769,1.33 ± 0.11
10,UniProt P62081,1.02 ± 0.22
11,UniProt P82912 and related entries,1.38 ± 0.39
12,UniProt P78406 and related entries,1.08 ± 0.056
13,UniProt P62269,0.731 ± 0.2
14,UniProt P63000 and related entries,1 ± 0.1
15,UniProt P62913 and related entries,0.996 ± 0.15
16,UniProt P62277,0.626 ± 0.17
17,UniProt P61966,1.09 ± 0.04
18,MPP1 (UniProt Q00013),0.927 ± 0.048
19,UniProt P53990 and related entries,0.867 ± 0.085
